Experimental data as given in paper PMC8748658.
No constants are given. Whether binding was seen depends on the method and setting. Binding calls can cover weak binding; strength is not graded here. Tags and fused reporters may be left off the sequences shown. For some assays here: Binding seen in cells or lysates may run through a third protein.

Assays:
L1-70-Myc = assay: ELISA; purified L1-70-Myc coated in PBS on 96-well plates; purified Top1-HA at 0.1, 0.5, 1, 5 and 10 nM, 2 h at 37 °C; detection with rabbit anti-HA, TMB; both purified
[1] = target: L1-70-Myc (AAV-L1-70-Myc); assay: proximity ligation; Duolink with antibodies against Myc and HA on cells transduced with AAV-L1-70-Myc and AAV-Top1-HA (U87 cells by the legend, cultured hippocampal cells by the text); cells with one virus only as controls

B1: Top1-HA (enzyme, UniProt Q04750 1-767)
chain: MSGDHLHNDSQIEADFRLNDSHKHKDKHKDREHRHKEHKKDKDKDREKSKHSNSEHKDSEKKHKEKEKTKHKDGSSEKHKDKHKDRDKERRKEEKIRAAGDAKIKKEKENGFSSPPRIKDEPEDDGYFAPPKEDIKPLKRLRDEDDADYKPKKIKTEDIKKEKKRKSEEEEDGKLKKPKNKDKDKKVAEPDNKKKKPKKEEEQKWKWWEEERYPEGIKWKFLEHKGPVFAPPYEPLPESVKFYYDGKVMKLSPKAEEVATFFAKMLDHEYTTKEIFRKNFFKDWRKEMTNDEKNTITNLSKCDFTQMSQYFKAQSEARKQMSKEEKLKIKEENEKLLKEYGFCVMDNHRERIANFKIEPPGLFRGRGNHPKMGMLKRRIMPEDIIINCSKDAKVPSPPPGHKWKEVRHDNKVTWLVSWTENIQGSIKYIMLNPSSRIKGEKDWQKYETARRLKKCVDKIRNQYREDWKSKEMKVRQRAVALYFIDKLALRAGNEKEEGETADTVGCCSLRVEHINLHPELDGQEYVVEFDFPGKDSIRYYNKVPVEKRVFKNLQLFMENKQPEDDLFDRLNTGILNKHLQDLMEGLTAKVFRTYNASITLQQQLKELTAPDENVPAKILSYNRANRAVAILCNHQRAPPKTFEKSMMNLQSKIDAKKDQLADARRDLKSAKADAKVMKDAKTKKVVESKKKAVQRLEEQLMKLEVQATDREENKQIALGTSKLNYLDPRITVAWCKKWGVPIEKIYNKTQREKFAWAIDMTDEDYEF
L1-70-Myc
  binding: binds

B2: Top1-HA (AAV-Top1-HA) (enzyme, UniProt Q04750 1-767)
chain: MSGDHLHNDSQIEADFRLNDSHKHKDKHKDREHRHKEHKKDKDKDREKSKHSNSEHKDSEKKHKEKEKTKHKDGSSEKHKDKHKDRDKERRKEEKIRAAGDAKIKKEKENGFSSPPRIKDEPEDDGYFAPPKEDIKPLKRLRDEDDADYKPKKIKTEDIKKEKKRKSEEEEDGKLKKPKNKDKDKKVAEPDNKKKKPKKEEEQKWKWWEEERYPEGIKWKFLEHKGPVFAPPYEPLPESVKFYYDGKVMKLSPKAEEVATFFAKMLDHEYTTKEIFRKNFFKDWRKEMTNDEKNTITNLSKCDFTQMSQYFKAQSEARKQMSKEEKLKIKEENEKLLKEYGFCVMDNHRERIANFKIEPPGLFRGRGNHPKMGMLKRRIMPEDIIINCSKDAKVPSPPPGHKWKEVRHDNKVTWLVSWTENIQGSIKYIMLNPSSRIKGEKDWQKYETARRLKKCVDKIRNQYREDWKSKEMKVRQRAVALYFIDKLALRAGNEKEEGETADTVGCCSLRVEHINLHPELDGQEYVVEFDFPGKDSIRYYNKVPVEKRVFKNLQLFMENKQPEDDLFDRLNTGILNKHLQDLMEGLTAKVFRTYNASITLQQQLKELTAPDENVPAKILSYNRANRAVAILCNHQRAPPKTFEKSMMNLQSKIDAKKDQLADARRDLKSAKADAKVMKDAKTKKVVESKKKAVQRLEEQLMKLEVQATDREENKQIALGTSKLNYLDPRITVAWCKKWGVPIEKIYNKTQREKFAWAIDMTDEDYEF
[1]
  binding: binds
